Construct, isoform or probe ends are uncertain for at least one entry.
Assays:
[1] = target: EZH2 loop TD (phosphomimetic) T345D (UniProt Q15910); assay: EMSA; conditions: small but clear shift; EMSA: LightShift RNA EMSA kit protocol, 1-2 nM refolded RNA, 30 min room temperature, 4 or 6% native PAGE, 0.5x TBE; recombinant protein; protein details: His tag implied (pET22b, HisTrap)
[2] = target: EZH2 loop TD (phosphomimetic) T345D (UniProt Q15910); assay: MST; conditions: no significant difference from WT, value only in figure; MST: Monolith NT.115, standard treated capillaries, 40% MST power; binding buffer; recombinant protein; protein details: His tag implied (pET22b, HisTrap)

Chains of the proteins cited; added tags and fusions are not shown. Residues count along the entry.
UniProt Q15910, 340-435 T345D: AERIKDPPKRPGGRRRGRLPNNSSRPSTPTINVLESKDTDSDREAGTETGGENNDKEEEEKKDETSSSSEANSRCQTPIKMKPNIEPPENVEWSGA

AAGAAUGGCCUCGCGGAGGCAUGCGUCAUGCUAGCGUGCGGGGUACUCUU [R50]
binding result [1]: binds
binding result [2]: binds
